Source: US20250361273A1, “METHODS AND COMPOSITIONS” (priority 2024, published 2025)
At least one structure is not confirmed: it was looked up by name or label, or the drawing left a doubt.

By UniProt entry, the sequences of proteins in these tests, tags left out.
UniProt P32245, whole entry: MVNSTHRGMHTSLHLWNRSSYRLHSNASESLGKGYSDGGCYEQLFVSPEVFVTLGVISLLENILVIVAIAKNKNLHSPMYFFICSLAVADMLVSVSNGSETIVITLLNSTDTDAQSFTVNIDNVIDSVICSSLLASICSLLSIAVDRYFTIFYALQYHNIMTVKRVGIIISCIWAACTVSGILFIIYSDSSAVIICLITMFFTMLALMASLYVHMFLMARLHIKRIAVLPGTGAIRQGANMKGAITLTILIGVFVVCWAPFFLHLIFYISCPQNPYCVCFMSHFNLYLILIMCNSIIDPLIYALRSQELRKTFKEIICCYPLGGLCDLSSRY

Target: T1, MC4R (Homo sapiens, UniProt P32245)
T1 construct: host or cells: HEK293 (cAMP Hunter and PathHunter MC4R cell lines)
Experiment: Bias calculation MC4R B-arrestin v MC4R cAMP
Format: cell-based
Details: Table 5

CC(=O)N[C@@H](CCCNC(=N)N)C(=O)N[C@H]1CSSC[C@@H](C(N)=O)NC(=O)[C@H](Cc2c[nH]c3ccccc23)NC(=O)[C@H](CCCNC(=N)N)NC(=O)[C@@H](Cc2ccccc2)NC(=O)[C@H](Cc2c[nH]cn2)NC(=O)[C@@H](C)NC1=O [Setmelanotide, reference compound]
Bias: MC4R B-arrestin v MC4R cAMP (Larger numbers indicate bias towards B-arrestin): 1.17
